# Laboratory results as given in the supplement of paper PMC8728848.
# Some of the results follow.
# Columns and labels:
# Test in all cases: glycan array binding signal (z-score within array); higher = stronger binding
# Details in all cases: glycan notation: IUPAC condensed, linker removed
# [1] = biological target: Gal(b1-3)GlcNAc(b1-6)[Gal(b1-3)]GalNAc
# Method in brief: (§1)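 Negative Z-scores can be read as non-binding. The Z-score is calculated within each array and then averaged across arrays of one protein sequence at different concentrations or buffers and across linkers. Arrays, 3228 in all, were curated from the Consortium for Functional Glycomics database and kept only where the protein sequence was available.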
# Gal(b1-3)GlcNAc6S = biological target: Gal(b1-3)GlcNAc6S
# Method in brief: as §1
# [2] = biological target: Gal(b1-3)[Fuc(a1-4)]GlcNAc
# Method in brief: as §1
# [3] = biological target: Gal(b1-3)[Fuc(a1-4)]GlcNAc(b1-2)Man
# Method in brief: as §1
# [4] = biological target: Gal(b1-3)[Fuc(a1-4)]GlcNAc(b1-2)Man(a1-3)[Gal(b1-3)[Fuc(a1-4)]GlcNAc(b1-2)Man(a1-6)]Man(b1-4)GlcNAc(b1-4)[Fuc(a1-6)]GlcNAc
# Method in brief: as §1
# [5] = biological target: Gal(b1-3)[Fuc(a1-4)]GlcNAc(b1-3)Gal(b1-3)[Fuc(a1-4)]GlcNAc
# Method in brief: as §1
# [6] = biological target: Gal(b1-3)[Fuc(a1-4)]GlcNAc(b1-3)Gal(b1-4)[Fuc(a1-3)]GlcNAc
# Method in brief: as §1
# [7] = biological target: Gal(b1-3)[Fuc(a1-4)]GlcNAc(b1-6)GalNAc
# Method in brief: as §1
# [8] = biological target: Gal(b1-3)[GlcNAc(b1-6)]GalNAc
# Method in brief: as §1
# [9] = biological target: Gal(b1-3)[Neu5Ac(a2-6)]GalNAc
# Method in brief: as §1
# [10] = biological target: Gal(b1-3)[Neu5Ac(a2-6)]GlcNAc(b1-4)Gal(b1-4)Glc
# Method in brief: as §1
# [11] = biological target: Gal(b1-3)[Neu5Ac(b2-6)]GalNAc
# Method in brief: as §1
# Gal(b1-4)Gal = biological target: Gal(b1-4)Gal
# Method in brief: as §1
# [12] = biological target: Gal(b1-4)GalNAc(a1-3)[Fuc(a1-2)]Gal(b1-4)GlcNAc
# Method in brief: as §1
# [13] = biological target: Gal(b1-4)GalNAc(b1-3)[Fuc(a1-2)]Gal(b1-4)GlcNAc
# Method in brief: as §1
# Gal(b1-4)Glc = biological target: Gal(b1-4)Glc
# Method in brief: as §1
# Gal(b1-4)Glc6S = biological target: Gal(b1-4)Glc6S
# Method in brief: as §1
# Gal(b1-4)GlcNAc = biological target: Gal(b1-4)GlcNAc
# Method in brief: as §1
# [14] = biological target: Gal(b1-4)GlcNAc(a1-6)Gal(b1-4)GlcNAc
# Method in brief: as §1
# Gal(b1-4)GlcNAc(b1-2)Man = biological target: Gal(b1-4)GlcNAc(b1-2)Man
# Method in brief: as §1
# [15] = biological target: Gal(b1-4)GlcNAc(b1-2)Man(a1-3)Man(b1-4)GlcNAc(b1-4)GlcNAc
# Method in brief: as §1
# [16] = biological target: Gal(b1-4)GlcNAc(b1-2)Man(a1-3)[Gal(b1-4)GlcNAc(b1-2)Man(a1-6)]Man(b1-4)GlcNAc(b1-4)GlcNAc
# Method in brief: as §1
# [17] = biological target: Gal(b1-4)GlcNAc(b1-2)Man(a1-3)[Gal(b1-4)GlcNAc(b1-2)Man(a1-6)]Man(b1-4)GlcNAc(b1-4)[Fuc(a1-6)]GlcNAc
# Method in brief: as §1
# [18] = biological target: Gal(b1-4)GlcNAc(b1-2)Man(a1-3)[Gal(b1-4)GlcNAc(b1-2)Man(a1-6)][Gal(b1-4)GlcNAc(b1-4)]Man(b1-4)GlcNAc(b1-4)[Fuc(a1-6)]GlcNAc
# Method in brief: as §1
# [19] = biological target: Gal(b1-4)GlcNAc(b1-2)Man(a1-3)[Gal(b1-4)GlcNAc(b1-2)Man(a1-6)][GlcNAc(b1-4)]Man(b1-4)GlcNAc(b1-4)[Fuc(a1-6)]GlcNAc
# Method in brief: as §1
# [20] = biological target: Gal(b1-4)GlcNAc(b1-2)Man(a1-3)[GlcNAc(b1-2)Man(a1-6)]Man(b1-4)GlcNAc(b1-4)GlcNAc
# Method in brief: as §1
# [21] = biological target: Gal(b1-4)GlcNAc(b1-2)Man(a1-3)[GlcNAc(b1-4)][Gal(b1-4)GlcNAc(b1-2)Man(a1-6)]Man(b1-4)GlcNAc(b1-4)GlcNAc
# Method in brief: as §1
# [22] = biological target: Gal(b1-4)GlcNAc(b1-2)Man(a1-3)[Man(a1-6)]Man(b1-4)GlcNAc(b1-4)GlcNAc
# Method in brief: as §1
# [23] = biological target: Gal(b1-4)GlcNAc(b1-2)Man(a1-6)Man(b1-4)GlcNAc(b1-4)GlcNAc
# Method in brief: as §1
# [24] = biological target: Gal(b1-4)GlcNAc(b1-2)Man(a1-6)[GlcNAc(b1-2)Man(a1-3)]Man(b1-4)GlcNAc(b1-4)GlcNAc
# Method in brief: as §1
# [25] = biological target: Gal(b1-4)GlcNAc(b1-2)Man(a1-6)[Man(a1-3)]Man(b1-4)GlcNAc(b1-4)GlcNAc
# Method in brief: as §1
# [26] = biological target: Gal(b1-4)GlcNAc(b1-2)[Gal(b1-4)GlcNAc(b1-4)]Man(a1-3)[Gal(b1-4)GlcNAc(b1-2)Man(a1-6)]Man(b1-4)GlcNAc(b1-4)GlcNAc
# Method in brief: as §1
# [27] = biological target: Gal(b1-4)GlcNAc(b1-2)[Gal(b1-4)GlcNAc(b1-4)]Man(a1-3)[Gal(b1-4)GlcNAc(b1-2)[Gal(b1-4)GlcNAc(b1-6)]Man(a1-6)]Man(b1-4)GlcNAc(b1-4)GlcNAc
# Method in brief: as §1
# [28] = biological target: Gal(b1-4)GlcNAc(b1-2)[Gal(b1-4)GlcNAc(b1-4)]Man(a1-3)[GlcNAc(b1-4)][Gal(b1-4)GlcNAc(b1-2)Man(a1-6)]Man(b1-4)GlcNAc(b1-4)GlcNAc
# Method in brief: as §1
# [29] = biological target: Gal(b1-4)GlcNAc(b1-2)[Gal(b1-4)GlcNAc(b1-4)]Man(a1-3)[GlcNAc(b1-4)][Gal(b1-4)GlcNAc(b1-2)[Gal(b1-4)GlcNAc(b1-6)]Man(a1-6)]Man(b1-4)GlcNAc(b1-4)GlcNAc
# Method in brief: as §1
# [30] = biological target: Gal(b1-4)GlcNAc(b1-2)[Gal(b1-4)GlcNAc(b1-6)]Man(a1-6)[Gal(b1-4)GlcNAc(b1-2)Man(a1-3)]Man(b1-4)GlcNAc(b1-4)GlcNAc
# Method in brief: as §1
# [31] = biological target: Gal(b1-4)GlcNAc(b1-2)[Gal(b1-4)GlcNAc(b1-6)]Man(a1-6)[Gal(b1-4)GlcNAc(b1-2)Man(a1-3)]Man(b1-4)GlcNAc(b1-4)[Fuc(a1-6)]GlcNAc
# Method in brief: as §1
binder,measurement,setting,value
SynCAM (Mus musculus) (protein) MASAVLPSGSQCAAAAAVAAAAAPPGLRLRLLLLLLSAAALIPTGDGQNLFTKDVTVIEGEVATISCQVNKSDDSVIQLLNPNRQTIYFRDFRPLKDSRFQLLNFSSSELKVSLTNVSISDEGRYFCQLYTDPPQESYTTITVLVPPRNLMIDIQKDTAVEGEEIEVNCTAMASKPATTIRWFKGNKELKGKSEVEEWSDMYTVTSQLMLKVHKEDDGVPVICQVEHPAVTGNLQTQRYLEVQYKPQVHIQMTYPLQGLTREGDAFELTCEAIGKPQPVMVTWVRVDDEMPQHAVLSGPNLFINNLNKTDNGTYRCEASNIVGKAHSDYMLYVYDPPTTIPPP,glycan array binding signal (z-score),[1],-0.035
same,glycan array binding signal (z-score),Gal(b1-3)GlcNAc6S,0.309
same,glycan array binding signal (z-score),[2],-0.638
same,glycan array binding signal (z-score),[3],0.627
same,glycan array binding signal (z-score),[4],-0.347
same,glycan array binding signal (z-score),[5],-1.15
same,glycan array binding signal (z-score),[6],-0.481
same,glycan array binding signal (z-score),[7],0.272
same,glycan array binding signal (z-score),[8],0.464
same,glycan array binding signal (z-score),[9],-0.488
same,glycan array binding signal (z-score),[10],-0.76
same,glycan array binding signal (z-score),[11],-0.562
same,glycan array binding signal (z-score),Gal(b1-4)Gal,-0.298
same,glycan array binding signal (z-score),[12],-0.876
same,glycan array binding signal (z-score),[13],-0.623
same,glycan array binding signal (z-score),Gal(b1-4)Glc,-0.359
same,glycan array binding signal (z-score),Gal(b1-4)Glc6S,0.23
same,glycan array binding signal (z-score),Gal(b1-4)GlcNAc,-1
same,glycan array binding signal (z-score),[14],-0.529
same,glycan array binding signal (z-score),Gal(b1-4)GlcNAc(b1-2)Man,-0.133
same,glycan array binding signal (z-score),[15],-1.2
same,glycan array binding signal (z-score),[16],-0.664
same,glycan array binding signal (z-score),[17],-1.12
same,glycan array binding signal (z-score),[18],-0.98
same,glycan array binding signal (z-score),[19],0.19
same,glycan array binding signal (z-score),[20],-1.32
same,glycan array binding signal (z-score),[21],-0.51
same,glycan array binding signal (z-score),[22],-1.75
same,glycan array binding signal (z-score),[23],-0.469
same,glycan array binding signal (z-score),[24],0.098
same,glycan array binding signal (z-score),[25],-0.438
same,glycan array binding signal (z-score),[26],-0.702
same,glycan array binding signal (z-score),[27],-0.042
same,glycan array binding signal (z-score),[28],-1.17
same,glycan array binding signal (z-score),[29],-0.954
same,glycan array binding signal (z-score),[30],1.57
same,glycan array binding signal (z-score),[31],0.779

# Pulled one by one from the entries so far (3):
binder,measurement,setting,value
SynCAM (Mus musculus) (protein) MASAVLPSGSQCAAAAAVAAAAAPPGLRLRLLLLLLSAAALIPTGDGQNLFTKDVTVIEGEVATISCQVNKSDDSVIQLLNPNRQTIYFRDFRPLKDSRFQLLNFSSSELKVSLTNVSISDEGRYFCQLYTDPPQESYTTITVLVPPRNLMIDIQKDTAVEGEEIEVNCTAMASKPATTIRWFKGNKELKGKSEVEEWSDMYTVTSQLMLKVHKEDDGVPVICQVEHPAVTGNLQTQRYLEVQYKPQVHIQMTYPLQGLTREGDAFELTCEAIGKPQPVMVTWVRVDDEMPQHAVLSGPNLFINNLNKTDNGTYRCEASNIVGKAHSDYMLYVYDPPTTIPPP,glycan array binding signal (z-score),[20],-1.32
same,glycan array binding signal (z-score),[14],-0.529
same,glycan array binding signal (z-score),[23],-0.469
